Measurements taken from article PMC9410877.
Results are given in words; binding and its absence hold for the method and conditions named. Binding seen in cells or lysates may run through a third protein. Here binding means that the protein was enriched with, or labelled near, the bait; the list need not be complete.

Sequences of proteins named here, by UniProt entry; tags and fusion partners are left off.
UniProt Q3URK3: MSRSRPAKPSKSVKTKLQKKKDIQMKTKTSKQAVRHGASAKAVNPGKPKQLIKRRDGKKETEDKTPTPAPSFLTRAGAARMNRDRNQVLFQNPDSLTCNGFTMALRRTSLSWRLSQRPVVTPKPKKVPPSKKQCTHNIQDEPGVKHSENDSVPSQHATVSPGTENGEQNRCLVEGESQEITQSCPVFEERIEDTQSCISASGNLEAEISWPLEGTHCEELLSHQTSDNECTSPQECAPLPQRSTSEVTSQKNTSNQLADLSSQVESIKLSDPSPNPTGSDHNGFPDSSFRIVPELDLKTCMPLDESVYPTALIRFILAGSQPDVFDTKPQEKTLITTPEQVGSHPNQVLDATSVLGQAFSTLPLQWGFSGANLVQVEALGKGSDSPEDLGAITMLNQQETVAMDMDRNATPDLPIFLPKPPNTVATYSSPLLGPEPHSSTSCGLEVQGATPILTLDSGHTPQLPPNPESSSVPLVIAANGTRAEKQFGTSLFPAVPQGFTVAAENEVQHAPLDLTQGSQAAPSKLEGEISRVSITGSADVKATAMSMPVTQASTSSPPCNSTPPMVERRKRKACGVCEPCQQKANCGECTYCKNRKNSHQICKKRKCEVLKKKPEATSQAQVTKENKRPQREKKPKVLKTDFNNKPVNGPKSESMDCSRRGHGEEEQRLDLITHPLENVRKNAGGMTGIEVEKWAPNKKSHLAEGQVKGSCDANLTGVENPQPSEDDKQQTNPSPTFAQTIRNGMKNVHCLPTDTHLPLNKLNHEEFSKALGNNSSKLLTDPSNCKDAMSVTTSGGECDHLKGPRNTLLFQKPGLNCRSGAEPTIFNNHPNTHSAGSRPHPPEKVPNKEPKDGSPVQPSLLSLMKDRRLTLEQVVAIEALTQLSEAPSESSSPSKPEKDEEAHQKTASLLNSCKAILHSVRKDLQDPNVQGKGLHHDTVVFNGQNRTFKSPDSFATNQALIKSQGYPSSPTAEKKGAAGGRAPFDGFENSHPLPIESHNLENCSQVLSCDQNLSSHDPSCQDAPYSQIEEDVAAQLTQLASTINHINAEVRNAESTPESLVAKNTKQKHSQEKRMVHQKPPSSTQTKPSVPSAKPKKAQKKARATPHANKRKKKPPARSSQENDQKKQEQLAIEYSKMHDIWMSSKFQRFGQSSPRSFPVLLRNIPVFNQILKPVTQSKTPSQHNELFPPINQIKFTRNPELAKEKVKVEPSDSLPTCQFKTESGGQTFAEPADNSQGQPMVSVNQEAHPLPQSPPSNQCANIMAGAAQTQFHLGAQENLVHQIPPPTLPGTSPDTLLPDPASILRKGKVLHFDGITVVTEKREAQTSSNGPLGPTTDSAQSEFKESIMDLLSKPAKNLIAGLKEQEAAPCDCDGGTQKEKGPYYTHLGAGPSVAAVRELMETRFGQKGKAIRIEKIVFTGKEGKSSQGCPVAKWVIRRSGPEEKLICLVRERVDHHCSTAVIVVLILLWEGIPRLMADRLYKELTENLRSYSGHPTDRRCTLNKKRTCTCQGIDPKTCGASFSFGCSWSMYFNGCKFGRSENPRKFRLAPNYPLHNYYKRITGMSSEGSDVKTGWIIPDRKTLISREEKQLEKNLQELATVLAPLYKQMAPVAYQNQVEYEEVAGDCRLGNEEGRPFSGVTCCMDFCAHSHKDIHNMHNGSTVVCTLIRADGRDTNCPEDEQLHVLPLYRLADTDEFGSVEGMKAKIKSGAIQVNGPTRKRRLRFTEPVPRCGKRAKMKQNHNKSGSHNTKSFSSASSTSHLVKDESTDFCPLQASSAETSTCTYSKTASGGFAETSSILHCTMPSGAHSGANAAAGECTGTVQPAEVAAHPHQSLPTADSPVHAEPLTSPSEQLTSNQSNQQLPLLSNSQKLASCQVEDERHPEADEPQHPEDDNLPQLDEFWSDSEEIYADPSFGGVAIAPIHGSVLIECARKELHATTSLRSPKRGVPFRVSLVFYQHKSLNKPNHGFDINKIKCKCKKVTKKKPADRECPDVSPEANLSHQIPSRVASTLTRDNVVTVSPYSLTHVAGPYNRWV
UniProt P83917: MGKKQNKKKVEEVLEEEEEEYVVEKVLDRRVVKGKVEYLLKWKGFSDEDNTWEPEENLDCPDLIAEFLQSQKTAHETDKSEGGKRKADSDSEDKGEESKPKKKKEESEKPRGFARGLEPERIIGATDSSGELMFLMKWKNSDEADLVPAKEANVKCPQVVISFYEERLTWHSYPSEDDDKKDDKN
UniProt Q80U70: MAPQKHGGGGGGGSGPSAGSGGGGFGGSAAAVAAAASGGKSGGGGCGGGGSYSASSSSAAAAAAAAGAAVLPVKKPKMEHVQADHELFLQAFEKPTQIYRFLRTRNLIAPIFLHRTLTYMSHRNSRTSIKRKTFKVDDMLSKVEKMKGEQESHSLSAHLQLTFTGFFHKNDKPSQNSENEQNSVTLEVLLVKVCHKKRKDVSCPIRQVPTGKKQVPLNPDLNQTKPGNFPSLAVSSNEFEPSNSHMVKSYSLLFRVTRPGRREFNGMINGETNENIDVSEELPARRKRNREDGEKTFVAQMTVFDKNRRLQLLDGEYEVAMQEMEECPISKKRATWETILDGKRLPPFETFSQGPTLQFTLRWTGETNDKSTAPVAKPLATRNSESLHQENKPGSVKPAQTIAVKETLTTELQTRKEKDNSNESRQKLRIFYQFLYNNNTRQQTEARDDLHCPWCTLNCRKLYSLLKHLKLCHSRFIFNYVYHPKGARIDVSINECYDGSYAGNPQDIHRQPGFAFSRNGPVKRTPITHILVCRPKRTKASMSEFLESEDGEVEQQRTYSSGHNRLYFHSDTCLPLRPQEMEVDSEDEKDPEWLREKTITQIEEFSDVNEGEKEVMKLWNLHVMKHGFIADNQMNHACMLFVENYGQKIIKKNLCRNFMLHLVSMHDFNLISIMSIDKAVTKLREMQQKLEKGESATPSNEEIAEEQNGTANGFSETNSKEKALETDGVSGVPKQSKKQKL
UniProt Q921E6: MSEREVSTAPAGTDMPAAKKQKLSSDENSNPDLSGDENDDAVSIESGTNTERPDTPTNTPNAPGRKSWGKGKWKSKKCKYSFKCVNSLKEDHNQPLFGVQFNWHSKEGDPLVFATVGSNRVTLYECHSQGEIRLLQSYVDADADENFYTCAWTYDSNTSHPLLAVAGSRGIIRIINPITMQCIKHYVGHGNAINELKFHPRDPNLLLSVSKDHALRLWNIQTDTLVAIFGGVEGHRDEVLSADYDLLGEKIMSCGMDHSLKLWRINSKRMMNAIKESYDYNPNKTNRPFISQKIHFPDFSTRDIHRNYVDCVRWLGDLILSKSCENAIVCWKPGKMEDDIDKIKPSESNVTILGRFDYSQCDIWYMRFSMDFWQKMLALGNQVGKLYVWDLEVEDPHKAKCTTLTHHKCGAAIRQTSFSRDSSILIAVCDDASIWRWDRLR

target: TET1 (ten-eleven translocation 1) (mouse (endogenous in mESCs)) (UniProt Q3URK3); experiment: affinity purification with mass spectrometry; ChIP-MS of TET1: WT and Tet1 KO mESCs (Serum LIF), triplicates, crosslinked with 1% paraformaldehyde, chromatin sheared by sonication (no MNase), anti-TET1 antibody (09-872-I, Sigma-Aldrich) overnight at 4°C, protein A/G beads, two low salt (140 mM NaCl), one high salt (500 mM NaCl) and two TBS washes, on-bead trypsin digestion, LC-MS/MS, MaxLFQ; t-test, FDR 5%, log2 fold change cut-off 1

binding, binds:
heterochromatin protein 1 (HP1) beta (from UniProt P83917 1-185)
SUZ12 (from UniProt Q80U70 1-741)
EED (from UniProt Q921E6 1-441)
